Results from paper PMC4786870.
Like-named read-outs stand apart in the source and are kept apart here. Results are given in words; binding and its absence hold for the method and conditions named. Binding seen in cells or lysates may run through a third protein. Some binding calls cover weakened binding; strength is not graded here. For part of these data: Where a sequence is shown, tags or fusion partners need not be part of it. Values belong to the molecule of their own block, whether it stands above or below them.

Sequences of proteins named here, by UniProt entry; tags and fusion partners are left off.
UniProt Q04888: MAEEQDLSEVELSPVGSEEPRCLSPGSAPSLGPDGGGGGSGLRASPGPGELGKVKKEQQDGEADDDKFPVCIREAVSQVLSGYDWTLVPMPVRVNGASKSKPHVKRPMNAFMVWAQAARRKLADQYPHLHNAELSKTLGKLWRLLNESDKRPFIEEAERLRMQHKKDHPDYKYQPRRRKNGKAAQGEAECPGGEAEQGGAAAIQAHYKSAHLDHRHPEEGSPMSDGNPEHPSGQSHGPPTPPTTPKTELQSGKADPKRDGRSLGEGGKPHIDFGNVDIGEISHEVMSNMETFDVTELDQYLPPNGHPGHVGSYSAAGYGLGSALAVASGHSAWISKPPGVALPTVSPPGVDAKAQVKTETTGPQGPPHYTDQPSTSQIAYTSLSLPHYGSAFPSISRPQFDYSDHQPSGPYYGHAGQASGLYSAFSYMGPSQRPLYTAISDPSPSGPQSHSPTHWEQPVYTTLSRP

Legend:
[1] = target: Flag-Tcf7l2 (pcDNA3 Flag-tag Tcf7l2) (UniProt Q924A0); experiment: co-IP; HEK293T cells transfected for 48 h with Flag-Tcf7l2 and β-catenin, Myc-Kaiso (varied amount) or HA-Sox10; precipitated with anti-Tcf7l2 (Fig. 4j) or anti-Flag (Fig. 5g); western blot
[2] = target: Tcf7l2 (endogenous, Oli-neu cells) (mouse (endogenous in Oli-neu)) (UniProt Q924A0); experiment: co-IP; Oli-neu cells, endogenous Tcf7l2; cells transfected with 3 μg pCS2-Myc-Kaiso or pcDNA3-HA-Sox10 (competition assay)
[3] = target: Tcf7l2 (endogenous, Oli-neu cells) (mouse (endogenous in Oli-neu)) (UniProt Q924A0); experiment: as above; remark: listed apart in the source
[4] = target: T1, Tcf7l2 (endogenous, Oli-neu cells) (mouse (endogenous in Oli-neu)), Q924A0; experiment: as above; settings: remark: other sources report otherwise
T1 chain: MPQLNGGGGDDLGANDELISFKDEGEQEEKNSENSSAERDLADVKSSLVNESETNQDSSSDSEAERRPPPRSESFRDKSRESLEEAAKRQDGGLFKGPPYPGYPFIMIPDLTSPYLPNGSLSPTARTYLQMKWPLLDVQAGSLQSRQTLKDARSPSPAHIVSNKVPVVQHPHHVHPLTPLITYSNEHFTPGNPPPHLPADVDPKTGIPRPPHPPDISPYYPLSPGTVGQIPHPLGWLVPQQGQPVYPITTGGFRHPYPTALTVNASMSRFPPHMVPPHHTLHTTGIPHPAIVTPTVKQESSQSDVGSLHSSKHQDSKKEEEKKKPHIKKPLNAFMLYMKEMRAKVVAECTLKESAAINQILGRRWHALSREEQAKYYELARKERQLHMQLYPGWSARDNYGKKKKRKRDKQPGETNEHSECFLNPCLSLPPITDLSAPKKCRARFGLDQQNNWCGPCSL

binding [1]: binds
Molecule: HA-Sox10 (pcDNA3-HA-Sox10), in HEK293T (from UniProt Q04888 1-466)

binding [2]: binds
Molecule: HA-Sox10 (pcDNA3-HA-Sox10), in Oli-neu cells (from UniProt Q04888 1-466)

binding [1]: binds
B1: Myc-Kaiso (pCS2-Myc-tag Kaiso), in HEK293T (protein, UniProt Q8BN78 1-671)
chain: MESRKLISATDIQYSASLLNSLNEQRGHGLFCDVTVIVEDRKFRAHRNILSASSTYFHQLFSVAGQVVELSFIRAEIFAEILNYIYSSKVVRVRADLLDELIKSGQLLGVKFIAELGVPLSQVKSISGTEQDGTAETLPSSSSDKSLDMEKSKDEAQDNGATVMPIITESFSLSAEDNEMKKIIVTDSDDDDDDDVIFCSEILPAKEDLPSNNTATQVQPNPASVAISEVTPCASNNSPPVTNITPTQLPTPVNQATLSQTQGSEELLVSSASTHLTPNIILLNQAPLTAPPSASSSLPNHMSSSVNVLVQNQQTPNSAVLTGNKAEEEEEIIDDDDDIISSSPDSAVSNTSLVPQADNSKSTTLDGSLTQKMQIPVLPQEPPSNSLKISDVITRNTNDPGLRSKHVMEGQKIITLDTATEIEGLSTGCKVYANIGEDTYDIVIPVKDDPDGGEAKLDNELPKTSGSEPPNKRMKVKHDDHYELIVDGRVYYICIVCKRSYVCLTSLRRHFNIHSWEKKYQCRYCDKVFPLAEYRTKHEIHHTGERRYQCLTCGKSFINYQFMSSHIKSVHSQDPSGDSKLYRLHPCKSLQIRQYAYLSNKSSAMPVMKDDAVGYKVDAGKEPPVGTTSTPPQNKSTFWEDIFIQQENDSIFKQNVTDGSTEFEFIIPESY

binding [3]: binds
B2: Myc-Kaiso (pCS2-Myc-Kaiso), in Oli-neu cells (protein, UniProt Q8BN78 1-671)
chain: B1 chain

binding [3]: binds
B3: Kaiso in Oli-neu cells (cells overexpressing Sox10) (protein, UniProt Q8BN78 1-671)
chain: B1 chain

binding [4]: binds
B4: β-catenin (endogenous, Oli-neu cells), Q02248 1-781 (protein)
chain: MATQADLMELDMAMEPDRKAAVSHWQQQSYLDSGIHSGATTTAPSLSGKGNPEEEDVDTSQVLYEWEQGFSQSFTQEQVADIDGQYAMTRAQRVRAAMFPETLDEGMQIPSTQFDAAHPTNVQRLAEPSQMLKHAVVNLINYQDDAELATRAIPELTKLLNDEDQVVVNKAAVMVHQLSKKEASRHAIMRSPQMVSAIVRTMQNTNDVETARCTAGTLHNLSHHREGLLAIFKSGGIPALVKMLGSPVDSVLFYAITTLHNLLLHQEGAKMAVRLAGGLQKMVALLNKTNVKFLAITTDCLQILAYGNQESKLIILASGGPQALVNIMRTYTYEKLLWTTSRVLKVLSVCSSNKPAIVEAGGMQALGLHLTDPSQRLVQNCLWTLRNLSDAATKQEGMEGLLGTLVQLLGSDDINVVTCAAGILSNLTCNNYKNKMMVCQVGGIEALVRTVLRAGDREDITEPAICALRHLTSRHQEAEMAQNAVRLHYGLPVVVKLLHPPSHWPLIKATVGLIRNLALCPANHAPLREQGAIPRLVQLLVRAHQDTQRRTSMGGTQQQFVEGVRMEEIVEGCTGALHILARDVHNRIVIRGLNTIPLFVQLLYSPIENIQRVAAGVLCELAQDKEAAEAIEAEGATAPLTELLHSRNEGVATYAAAVLFRMSEDKPQDYKKRLSVELTSSLFRTEPMAWNETADLGLDIGAQGEALGYRQDDPSYRSFHSGGYGQDALGMDPMMEHEMGGHHPGADYPVDGLPDLGHAQDLMDGLPPGDSNQLAWFDTDL
